Patent publication USRE32935E, “Non-toxic organotin stabilizers for vinyl chloride polymers” (M&T Chemicals, Inc., priority 1985, dated 1989)

Assay: heat stability of vinyl chloride polymer sheet at 204° C

CCCCCCC[CH2][Sn]([S]CC(=O)OCCCCCC(C)C)([S]CC(=O)OCCCCCC(C)C)[S]CC(=O)OCCCCCC(C)C [A, mono-n-octyltin-S,S',S"--tris(isooctyl mercaptoacetate)]
color rating (after 5 minutes of heating, 204° C): slight yellowness
color rating (after 10 minutes of heating, 204° C): slight yellowness
color rating (after 15 minutes of heating, 204° C): yellow
color rating (after 20 minutes of heating, 204° C): yellow-brown
color rating (after 25 minutes of heating, 204° C): black
color rating (initial, following milling): off white
